According to PubChem BioAssay AID1688 (National Center for Advancing Translational Sciences (NCATS), 2009):
Screen size: about 220,000 compounds; about 2,400 (1.1%) were called active. The inconclusive results got no clear call from the source; some entries with a clear call stand among them for comparison. Calls come from the whole dose curve; as a rule, active = well fitted inhibition curve with a large enough effect; inconclusive = small, poorly fitted or top-dose-only effect, or effect the other way; inactive = no such curve, though single readings can be large or run the other way. A potency beside an inconclusive call is a rough fit, not a confirmed value.

assay: qHTS Multiplex Assay to Identify Dual Action Probes in a Cell Model of Huntington: Aggregate Formation (GFP); details: PC12 HttQ103-GFP aggregates, Acumen cytometry, 40 h; activity change, negative = inhibition: at 46.1 µM (top of the series) unless noted; note: nearly all actives have a fitted effect of over 60% in size
How it was run: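 Aggregates are detected as GFP objects 1–25 µm with signal 6 STDEV over background in lysates of induced PC12 cells. These carry Huntingtin exon 1 with 103 glutamines fused to GFP under an ecdysone promoter; compounds titrated.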
% is set by controls: 0 for no effect and ±100 for the full control effect; potency is the fitted concentration of half-maximal effect.

Compound	activity change, negative = inhibition	Potency
OCCC1CN(Cc2ccc3nonc3c2)CCN1Cc1ccsc1 (configuration not stated)	inactive: -8.29% [at 9.22 µM]	–
O=C(N/N=C(\Cc1ncc[nH]1)c1ccccc1)c1cccnc1	–	inconclusive: 35.5 µM [inhibitor, single point]
CSc1ccc(Cl)c(C(=O)NCC(C)C)c1	–	active: 2 µM
O=C(O)COc1cccc2nsnc12	inactive: 11.4%	–
Nc1c(C(=O)Nc2nccs2)sc2nc(-c3cccs3)cc(C(F)(F)F)c12	–	inconclusive: 35.5 µM [inhibitor, single point]
CCOC(=O)C1=C(CC)Nc2ccccc2N/C1=N\S(=O)(=O)c1ccc2ccccc2c1	–	inconclusive: 15.8 µM [inhibitor, single point]
COc1ccc(C2=C(Nc3ccc(C)cc3)c3ccccc3C2=O)cc1	inactive: 15.5%	–
CCOC(=O)c1nn(-c2ccccc2)c2nc(Nc3ccccc3)cc(=O)n12	–	inconclusive: 2.51 µM [activator, partial curve, poor fit]
O=C(N/N=C/c1ccccc1Cl)c1n[nH]c2c1CCCC2	–	active: 12.6 µM
Fc1ccc(N=C2NN=C(c3cc(F)ccc3F)CS2)cc1	–	inconclusive: 35.5 µM [inhibitor, single point]
COc1cc(/C=N/NC(=O)c2ccc(F)cc2)ccc1OC(=O)c1ccco1	inactive: 2.62%	–
O=c1nc2sc3ccccc3n2c(=O)n1-c1ccc(Cl)cc1	–	inconclusive: 35.5 µM [inhibitor, single point]
COC(=O)CCN(C(=O)c1ccc(C)c([N+](=O)[O-])c1)c1ccccn1	inactive: 16.1%	–
C=C1CC(C)OC(c2ccccc2OCC(O)CN2CCCCC2)C1 (configuration not stated)	–	inconclusive: 20 µM [activator, single point]
COc1ccc(N2CCN(C(=O)CSc3nnc4n3C(C)(C)Cc3ccccc3-4)CC2)cc1	–	inconclusive: 5.62 µM [inhibitor, single point]
Cc1ccc(-c2cc(C(=O)O)n(-c3ccc(S(N)(=O)=O)cc3)n2)cc1	inactive: 0.971%	–
CCN(CC)c1ccc(C=Nc2ccc(N(C)C)cc2)c(O)c1	–	inconclusive: 12.6 µM [activator, partial curve]
CC(C)Cn1c(=O)c2c(nc3n2CCS3)n(C)c1=O	inactive: 29.1% [at 9.22 µM]	–
Cc1[nH]c(=O)[nH]c(=O)c1S(=O)(=O)N1CCCC(C(=O)N2CCN(c3cccc(C(F)(F)F)c3)CC2)C1 (configuration not stated)	–	inconclusive: 25.1 µM [inhibitor, single point]
Cc1occc1C(=O)NNC(=O)c1nn(C)c(=O)c2ccccc12	inactive: -10.8%	–
CC(=O)Oc1ccc2c(c1)Oc1cc(OC(C)=O)ccc1C21OC(=O)c2ccccc21	–	active: 0.316 µM
COc1cc(OC)cc(C(=O)Oc2ccc(/C=N/Nc3nc4ccccc4s3)cc2OC)c1	–	inconclusive: 35.5 µM [activator, single point]
Cc1cccc(-c2noc(CN(C)S(=O)(=O)c3cc(Cl)ccc3Cl)n2)c1	–	inconclusive: 35.5 µM [inhibitor, single point]
Cc1cc(C)nc(SCc2ccc(F)cc2)n1	–	inconclusive: 5.62 µM [inhibitor, single point]

Reformatted: results already given.
Compound | activity change, negative = inhibition | Potency
O=c1nc2sc3ccccc3n2c(=O)n1-c1ccc(Cl)cc1 | – | inconclusive: 35.5 µM [inhibitor, single point]
Cc1cccc(-c2noc(CN(C)S(=O)(=O)c3cc(Cl)ccc3Cl)n2)c1 | – | inconclusive: 35.5 µM [inhibitor, single point]

(list continues)

Compound	activity change, negative = inhibition	Potency
FC(F)(F)c1cccc(N2CCN(C(=S)NC3CCCCC3)CC2)c1	–	active: 22.4 µM
COCc1ccc(O)c2ncccc12	–	active: 11.2 µM
COC(=O)[C@@H]1C[C@@]2(O)[C@@H](O)[C@@H](O)[C@@H](O)C[C@H]2N1C/C=C/c1ccccc1	–	inconclusive: 0.501 µM [activator, full curve, poor fit]
CC12CC(c3ccccc3O1)N(C(=O)c1ccco1)C(=S)N2c1ccc(F)cc1 (configuration not stated)	–	inconclusive: 35.5 µM [inhibitor, single point]
COC(=O)c1cn(NC(=O)c2cc([N+](=O)[O-])ccc2F)c(=O)c2ccccc12	–	inconclusive: 4.47 µM [inhibitor, full curve]
COCCNC(=S)Nc1ccc([N+](=O)[O-])cc1C	–	inconclusive: 3.98 µM [activator, full curve, poor fit]
CCOC(=O)c1ccc(NC(=S)NCCc2ccc(F)cc2)cc1	inactive: 12%	–
Cc1cc(/C=N/n2cnnc2)c(C)n1-c1ccc(OCc2ccccc2F)cc1	–	active: 10 µM
CCc1cccc(CC)c1NC(=S)NCCc1c(C)[nH]c2ccc(C)cc12	–	active: 6.31 µM
CC1CCCN(CCCNC(=O)c2cc3c(Cl)nc4ccccc4c3s2)C1 (configuration not stated)	–	inconclusive: 35.5 µM [inhibitor, single point]
c1ccc(-c2nn3c(Cn4cnc5ccccc54)nnc3s2)cc1	inactive: -16.3%	–
CS(=O)(=O)N1CCN(C(=S)NCc2ccc(Cl)cc2)CC1	inactive: -7.75%	–
COc1ccc(CNCc2cccc(Oc3ccccc3)c2)cc1	–	active: 2.82 µM
Cc1csc(NC(=O)c2cncc(Br)c2)n1	–	inconclusive: 35.5 µM [inhibitor, single point]
O=c1[nH]c(=O)n([C@H]2C[C@H](O)[C@@H](CO)O2)cc1Br	inactive: 37.5%	–
COc1cccc(CC(Cc2nc3ccccc3[nH]2)c2nc3ccccc3[nH]2)c1 (configuration not stated)	–	inconclusive: 35.5 µM [inhibitor, single point]
CCOc1cccc(C(=O)NC(=S)Nc2cccnc2)c1	inactive: -6.87%	–
O=C(Nc1ccc2ccccc2c1)C(c1ccccc1)C1CCCC1 (configuration not stated)	–	inconclusive: 14.1 µM [inhibitor, partial curve]
CCCCC1(COC(=O)CCC(=O)O)C(=O)N(c2ccccc2)N(c2ccccc2)C1=O	inactive: -0.268% [at 20.6 µM]	–
COCc1cc(C)nc(Nc2ccc(C)c(C)c2)c1C#N	–	inconclusive: 3.98 µM [activator, full curve]
CCn1c(SC(C)C)nnc1-c1cc(-c2ccccc2)sc1N	–	inconclusive: 11.2 µM [inhibitor, partial curve]
CCCCn1c2c(c(=N)c3c1CCC3)CCC2	–	inconclusive: 3.98 µM [inhibitor, full curve]
COc1cccc(C2CC(c3c(-c4ccccc4)c4cc(Cl)ccc4[nH]c3=O)=NN2S(C)(=O)=O)c1OC (configuration not stated)	–	inconclusive: 35.5 µM [inhibitor, single point]

Full records from above. Order of values: activity change, negative = inhibition | Potency
CCOc1cccc(C(=O)NC(=S)Nc2cccnc2)c1 as listed: inactive: -6.87% | –
COc1ccc(CNCc2cccc(Oc3ccccc3)c2)cc1 as listed: – | active: 2.82 µM
